PubChem BioAssay AID652272, Drosophila RNAi Screening Center – 2013
In all, the deposit lists about 21,000 reagents; shown is a random part of those with a known target gene and a result. In the full data, 503 (2.4%) are marked active. 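Raw plate light values, not normalised; calls rest on replicate z-scores that were not deposited; hits include reporter decreases as well as increases.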 Names joined by + are all predicted targets of the reagent. No sequences are given here. Not stated in the record: the amount of reagent, the time to read-out.

- Purpose: 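Genes whose knock-down decreases or increases Hedgehog reporter output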 (primary screen)
- Cell system: Drosophila clone 8 (Cl8) cells
- Reagent: long dsRNA against Drosophila genes
- Detection: 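Firefly light from a Hedgehog-responsive ptc promoter reporter and Renilla reference light, both read on a plate reader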
- Direction: firefly Hh reporter signal: higher = more ptc reporter light; Renilla reference signal: higher = more Renilla control light
- Hit rule: 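Called a hit if the two-replicate mean z-score lies below -2 or above +3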
- Calls: active = hit: reporter lowered or raised; inactive = not a hit

Gene	amplicon	firefly Hh reporter signal, replicate 1	firefly Hh reporter signal, replicate 2	firefly Hh reporter signal, replicate 3	Renilla reference signal, replicate 1	Renilla reference signal, replicate 2	call
CG17636	DRSC20648	69297	1.63e5		1722	7570	inactive
Or23a (Odorant receptor 23a)	DRSC00767	1.06e5	68804		2560	1618	inactive
Obp50c + Obp50b	DRSC05482	96850	2.07e5		2727	9184	inactive
Cpr92A (Cuticular protein 92A)	DRSC16000	7.43e5	1.24e5		41276	2689	inactive
CG15708	DRSC06579	68770	32092		2018	2903	inactive
CG32409	DRSC08780	6.71e5	1.44e5	1.24e5	6028	3883	inactive
GNBP1 (Gram-negative bacteria binding protein 1)	DRSC11169	2.26e5			7154	6245	inactive
CG8306	DRSC07141	1.03e5	64992		5845	3051	inactive
Nup358 (Nucleoporin 358kD)	DRSC14410	1.00e5	65157		4324	1413	inactive
Eig71Ed (Ecdysone-induced gene 71Ed)	DRSC11151	1.26e5			6372	4023	inactive
CG1677	DRSC18116	74026	2.94e5		2532	13049	inactive
sol (small optic lobes)	DRSC20587	52328	2.24e5		1117	9403	inactive
PCNA2 (Proliferating cell nuclear antigen 2)	DRSC02030	88312	65612		2209	5236	inactive
ATPsynG (ATP synthase, subunit G)	DRSC02928	4.77e5	1.35e5	78227	21237	3522	active
Osi17 (Osiris 17)	DRSC12284	66458	1.11e5		2396	3312	inactive
Septin5 (Septin 5)	DRSC06843	58336	65419		2534	2332	inactive
pds5	DRSC06670	66000	46560		2589	1600	inactive
CG13250	DRSC11698	1.06e5	1.15e5		4011	3372	inactive
Nipsnap	DRSC20169	77123	86307		2432	2233	inactive
CG18081	DRSC10294	93458			4483	2939	inactive
CG43188	DRSC05260	1.78e5	3.64e5		5450	15803	inactive
tef (teflon)	DRSC07301	2.13e5	1.14e5		8560	4122	inactive
CG13041	DRSC09922	1.55e5			5072	4331	inactive
Asph (Aspartyl beta-hydroxylase)	DRSC06783	1.03e5	76772		2744	5161	inactive
Asph (Aspartyl beta-hydroxylase)	DRSC07171	1.25e5	68721		5225	3139	inactive

Already shown: entries from further up.
Gene	amplicon	firefly Hh reporter signal, replicate 1	firefly Hh reporter signal, replicate 2	firefly Hh reporter signal, replicate 3	Renilla reference signal, replicate 1	Renilla reference signal, replicate 2	call
CG32409	DRSC08780	6.71e5	1.44e5	1.24e5	6028	3883	inactive
GNBP1 (Gram-negative bacteria binding protein 1)	DRSC11169	2.26e5			7154	6245	inactive
CG8306	DRSC07141	1.03e5	64992		5845	3051	inactive
Nup358 (Nucleoporin 358kD)	DRSC14410	1.00e5	65157		4324	1413	inactive
Eig71Ed (Ecdysone-induced gene 71Ed)	DRSC11151	1.26e5			6372	4023	inactive
CG1677	DRSC18116	74026	2.94e5		2532	13049	inactive
sol (small optic lobes)	DRSC20587	52328	2.24e5		1117	9403	inactive
PCNA2 (Proliferating cell nuclear antigen 2)	DRSC02030	88312	65612		2209	5236	inactive

More entries:
Gene	amplicon	firefly Hh reporter signal, replicate 1	firefly Hh reporter signal, replicate 2	firefly Hh reporter signal, replicate 3	Renilla reference signal, replicate 1	Renilla reference signal, replicate 2	call
thoc6	DRSC10528	79741	50720		3677	2081	inactive
CG14743	DRSC06479	81056	33444		1773	2844	inactive
yellow-e2	DRSC15169	1.13e5	89168		3858	1706	inactive
CG14811	DRSC17962	98864	2.43e5		3024	10516	inactive
CG31441	DRSC15723	73930	94425		2224	2397	inactive
mwh (multiple wing hairs)	DRSC07949	82572	1.46e5		2043	5082	inactive
mwh (multiple wing hairs)	DRSC08382	77921	47267		3024	2611	inactive
IKKbeta (I-kappaB kinase beta)	DRSC16714	1.32e5	66555		5393	2711	inactive
CG2765	DRSC04315	65937	73067		3204	3082	inactive
CG17109	DRSC15172	6.89e5	1.59e5		36496	4891	inactive
CG13082	DRSC02186	73986	41468		2144	4001	inactive
sax (saxophone)	DRSC07675	98945	53197		5568	2908	inactive
CG13364	DRSC17898	1.17e5	2.45e5		4072	8556	inactive
CG13364	DRSC21263	1.11e5	2.31e5		3937	8080	inactive
Arl4 (ADP ribosylation factor-like 4)	DRSC17156	92731	2.54e5		3411	9803	inactive
CG11037	DRSC11631	1.24e5	1.25e5		4715	3961	inactive
ppk19 (pickpocket 19)	DRSC15321	78384	1.04e5		3180	2960	inactive
Nplp4 (Neuropeptide-like precursor 4)	DRSC00391	1.23e5	1.17e5		3219	2172	inactive
COX7AL2 (Cytochrome c oxidase subunit 7A-like 2)	DRSC00099	6.08e5	3.19e5		32397	11241	inactive
dah (discontinuous actin hexagon)	DRSC20320	1.28e5	73450		3334	1776	inactive
LysE (Lysozyme E)	DRSC08675	92636	47755		3072	3492	inactive
SelR (Selenoprotein R)	DRSC16071	75728	1.25e5		2640	3579	inactive
CG12539	DRSC19470	82528	1.76e5		2705	6877	inactive
CG14089	DRSC10093	82448	1.02e5		3012	2832	inactive
pes (peste)	DRSC03033	77692	60275		1922	4881	inactive
snRNA:U1:95Cc + CG43285 (retired record)	DRSC13640	52777	1.65e5		12064	3642	inactive
Cand1 (Cullin-associated and neddylation-dissociated 1)	DRSC01992	66690	48823		2613	2027	inactive
CG31296	DRSC13092	44155	1.66e5		10069	3504	inactive
kmr (kramer)	DRSC12986	54659	3.20e5		11221	6845	inactive
kmr (kramer)	DRSC14827	1.14e5	82692		4569	2711	inactive
kmr (kramer)	DRSC14828	1.12e5	84392		4007	1904	inactive
kmr (kramer)	DRSC16472	1.47e5	89360		5376	3354	inactive
